In patent US20110287023A1:
Results are given in words; binding and its absence hold for the method and conditions named. Some entries that bind do so weakly or less than the wild type.

The chains behind the UniProt entries cited, without tags or fusion partners.
UniProt P09429: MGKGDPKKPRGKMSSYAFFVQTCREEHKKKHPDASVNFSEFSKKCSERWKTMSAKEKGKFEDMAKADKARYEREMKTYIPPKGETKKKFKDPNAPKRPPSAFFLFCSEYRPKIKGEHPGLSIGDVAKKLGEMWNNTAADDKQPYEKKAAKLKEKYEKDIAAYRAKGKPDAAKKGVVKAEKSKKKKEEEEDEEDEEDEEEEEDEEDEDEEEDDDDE

Columns and labels:
[1] = molecular target: T1, HMGB1 B-box peptide 91-108 (UniProt P09429); assay: ELISA on biotinylated overlapping peptides
T1 sequence (peptide, biotinylated, looked up): DPNAPKRPPSAFFLFCSE

[2] = molecular target: T1, HMGB1 B-box peptide 91-108; assay: ELISA on biotinylated overlapping peptides, FIG. 5C
[3] = molecular target: T1, HMGB1 B-box peptide 91-108; assay: ELISA, biotinylated peptide on NeutrAvidin plate, antibody serially diluted from 10 ug/ml, anti-human IgG-HRP, OD 450
[4] = molecular target: HMGB1 in human sepsis sera (human) (UniProt P09429); assay: immunoprecipitation and Western blot

Measured: binding

B1: human anti-HMG1 antibody S16 (antibody, IgG1, V domains shown)
VH: EVQLLESGGGLVQPGGSLRLSCAASGFTFSWYSMLWVRQAPGKGLEWVSYISPSGGFTNYADSVKGRFTISRDNSKNTLYLQMNSLRAEDTAVYYCARWDYNSGWYYDHWGQGTLVTVSS
VL: DIQMTQSPDTLSLSPGERATLSCRASQSVNSRNLAWYQQKPGQAPRLLIYGASTRATGIPDRFSGSVSGTEFTLTISSLQPDDFATYYCQQYNSYFTFGQGTKLEIK
binds: [1] | [2] | [3]

B2: human anti-HMG1 antibody G4 (antibody, IgG1, V domains shown)
VH: EVQLLESGGGLVQPGGSLRLSCAASGFTFSWYDMTWVRQAPGKGLEWVSSISPSGGYTKYADSVKGRFTISRDNSKNTLYLQMNSLRAEDTAVYYCTTEFYDYLDVWGKGTTVTVSS
VL: DIQMTQSPGTLSLSPGEGATLSCRASQSVSSTYLAWYQQKPGQAPRLLIYEASKRATGTPARFSGSGSGTDFTLSISSLEPEDFAVYYCQHRHNWPPQWTFGQGTKVEVK
binds: all assays above
